Laboratory results as given in PMC10693060.
No constants are given. Whether binding was seen depends on the method and setting. Binding seen in cells or lysates may run through a third protein. Some entries that bind do so weakly or less than the wild type.

Sequences of proteins named here, by UniProt entry; tags and fusion partners are left off.
UniProt P29466: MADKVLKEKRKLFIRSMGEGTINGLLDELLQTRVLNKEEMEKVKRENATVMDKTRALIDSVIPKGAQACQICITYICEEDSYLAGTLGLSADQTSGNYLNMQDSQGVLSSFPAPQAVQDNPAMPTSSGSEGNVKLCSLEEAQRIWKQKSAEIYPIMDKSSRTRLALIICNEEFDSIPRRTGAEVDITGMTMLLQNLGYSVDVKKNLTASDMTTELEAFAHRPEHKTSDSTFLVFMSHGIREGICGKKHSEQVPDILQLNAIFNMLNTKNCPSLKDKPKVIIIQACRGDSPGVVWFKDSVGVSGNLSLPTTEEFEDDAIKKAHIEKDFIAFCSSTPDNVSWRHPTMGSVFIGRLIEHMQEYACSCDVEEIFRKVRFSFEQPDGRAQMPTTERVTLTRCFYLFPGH

Molecular target: T1, caspase-3 (human (endogenous in THP-1)) (UniProt P42574)
T1 sequence: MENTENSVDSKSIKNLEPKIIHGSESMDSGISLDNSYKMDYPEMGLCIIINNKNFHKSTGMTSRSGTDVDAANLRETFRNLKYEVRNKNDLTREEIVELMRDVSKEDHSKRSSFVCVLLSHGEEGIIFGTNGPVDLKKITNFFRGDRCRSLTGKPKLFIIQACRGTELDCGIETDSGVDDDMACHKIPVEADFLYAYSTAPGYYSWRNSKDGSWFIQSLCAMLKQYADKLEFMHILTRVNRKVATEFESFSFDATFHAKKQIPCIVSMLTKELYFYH
Experiment: co-IP; THP-1 macrophage lysate mixed with caspase-1 or caspase-3 antibody and protein A/G-agarose beads overnight at 4 °C; nonimmune IgG as negative control; detection by western blot; cells treated with nicotine (and MT)

binding: binds
Substance: caspase-1 (from UniProt P29466 1-404) (enzyme)
